This is an account of results in article PMC12365319.

Chains of the proteins cited; added tags and fusions are not shown.
UniProt Q6URW6: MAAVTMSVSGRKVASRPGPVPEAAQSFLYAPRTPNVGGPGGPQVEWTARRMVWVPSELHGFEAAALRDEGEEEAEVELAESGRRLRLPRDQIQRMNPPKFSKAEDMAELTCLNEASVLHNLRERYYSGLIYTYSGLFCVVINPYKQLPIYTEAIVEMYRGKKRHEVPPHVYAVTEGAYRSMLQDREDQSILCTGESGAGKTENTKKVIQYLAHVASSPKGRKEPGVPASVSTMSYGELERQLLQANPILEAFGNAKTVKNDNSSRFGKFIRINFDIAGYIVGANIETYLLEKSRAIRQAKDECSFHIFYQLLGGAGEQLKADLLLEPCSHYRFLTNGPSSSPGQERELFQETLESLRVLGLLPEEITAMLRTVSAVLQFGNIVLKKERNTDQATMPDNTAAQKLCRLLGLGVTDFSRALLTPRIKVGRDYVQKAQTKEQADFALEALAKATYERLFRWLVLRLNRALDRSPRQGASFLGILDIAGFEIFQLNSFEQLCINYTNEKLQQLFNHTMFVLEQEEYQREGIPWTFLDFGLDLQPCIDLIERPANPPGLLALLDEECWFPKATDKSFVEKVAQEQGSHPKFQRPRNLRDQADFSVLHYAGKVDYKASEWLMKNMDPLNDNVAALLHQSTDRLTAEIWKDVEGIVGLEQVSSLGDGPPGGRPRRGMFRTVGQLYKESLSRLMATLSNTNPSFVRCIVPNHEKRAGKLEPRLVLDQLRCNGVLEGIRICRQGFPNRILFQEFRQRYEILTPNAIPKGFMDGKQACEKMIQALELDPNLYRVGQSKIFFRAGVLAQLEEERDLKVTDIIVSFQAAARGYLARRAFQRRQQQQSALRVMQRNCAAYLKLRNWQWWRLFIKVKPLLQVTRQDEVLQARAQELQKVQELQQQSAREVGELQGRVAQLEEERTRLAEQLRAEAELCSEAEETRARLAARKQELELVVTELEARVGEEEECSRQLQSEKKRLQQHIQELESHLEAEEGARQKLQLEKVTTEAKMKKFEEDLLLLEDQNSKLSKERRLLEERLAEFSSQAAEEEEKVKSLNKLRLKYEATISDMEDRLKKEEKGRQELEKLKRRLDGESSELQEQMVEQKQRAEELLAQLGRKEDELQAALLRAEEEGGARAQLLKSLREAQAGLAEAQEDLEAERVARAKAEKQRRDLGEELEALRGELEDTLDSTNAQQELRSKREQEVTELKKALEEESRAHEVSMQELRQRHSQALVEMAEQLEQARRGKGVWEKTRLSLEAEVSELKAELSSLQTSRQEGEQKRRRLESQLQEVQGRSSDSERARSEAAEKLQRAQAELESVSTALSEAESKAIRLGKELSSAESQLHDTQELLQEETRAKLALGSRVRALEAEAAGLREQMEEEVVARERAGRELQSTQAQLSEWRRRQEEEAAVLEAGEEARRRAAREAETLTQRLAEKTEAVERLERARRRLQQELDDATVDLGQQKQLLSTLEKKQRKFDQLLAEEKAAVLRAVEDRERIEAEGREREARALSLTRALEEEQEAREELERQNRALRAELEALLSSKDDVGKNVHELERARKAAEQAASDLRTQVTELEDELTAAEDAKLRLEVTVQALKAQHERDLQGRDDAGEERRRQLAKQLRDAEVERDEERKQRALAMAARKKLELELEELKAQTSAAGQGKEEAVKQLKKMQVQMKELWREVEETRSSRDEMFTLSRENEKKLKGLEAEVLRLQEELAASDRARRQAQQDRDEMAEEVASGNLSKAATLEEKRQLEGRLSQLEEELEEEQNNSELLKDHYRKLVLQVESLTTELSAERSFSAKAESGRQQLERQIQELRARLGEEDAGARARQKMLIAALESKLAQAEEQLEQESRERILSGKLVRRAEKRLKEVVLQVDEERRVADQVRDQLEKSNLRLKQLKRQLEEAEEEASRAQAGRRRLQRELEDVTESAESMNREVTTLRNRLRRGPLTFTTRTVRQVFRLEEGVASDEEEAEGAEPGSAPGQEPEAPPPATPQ

No constants are given. Whether binding was seen depends on the method and setting. In cells and extracts the contact can be indirect. Some binding calls cover weakened binding; strength is not graded here.

The target in the assay is T1, F-box/LRR-repeat protein 12 (mouse (endogenous in SIM-A9)) (UniProt Q9EPX5).
T1 sequence: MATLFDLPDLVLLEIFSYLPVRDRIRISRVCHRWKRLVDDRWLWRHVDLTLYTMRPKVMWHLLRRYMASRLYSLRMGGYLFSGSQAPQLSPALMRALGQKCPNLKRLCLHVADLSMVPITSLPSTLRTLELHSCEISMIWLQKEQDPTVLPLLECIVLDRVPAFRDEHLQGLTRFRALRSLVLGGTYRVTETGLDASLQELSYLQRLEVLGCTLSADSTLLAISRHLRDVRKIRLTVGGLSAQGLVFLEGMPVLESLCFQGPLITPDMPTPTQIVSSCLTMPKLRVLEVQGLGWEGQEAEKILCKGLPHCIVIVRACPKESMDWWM
Briefly: co-IP; whole-cell lysates of WT and Fbxl12-/- SIM-A9 microglia incubated with an antibody overnight at 4 C, then Dynabeads 3 h at 4 C; immunoblot. For orientation: Immunoblotting shows a protein as a band on a membrane.

Turning to “Myosin heavy chain 14 (from UniProt Q6URW6 1-2000)”, the binding entry was “binds”.
